These are literature values, as cited in US20110245283A1, “Methods for predicting the response to statins” (priority 2009, published 2011).

Where two headings read alike, the source gives them in different places.

For the data set the following is noted: cited from earlier work.

For `CCCCc1oc2ccccc2c1C(=O)c1cc(I)c(OCCN(CC)CC)c(I)c1` [Amiodarone], the “Increased risk of toxicity or reduced statin effectiveness” value is listed as “(+)” (with Lova) and “(+)” (with Simva).
